Experimental data reported in PMC12203999.
These are yes or no findings as the source states them, for the method shown. In cells and extracts the contact can be indirect. Some entries that bind do so weakly or less than the wild type. For part of these data: Sequences can lack the tags named with a protein.

T1: Lon protease 1 (LONP1), endogenous in primary rat PASMCs (rat (endogenous in primary rat PASMCs)) (UniProt Q924S5)
T1 sequence: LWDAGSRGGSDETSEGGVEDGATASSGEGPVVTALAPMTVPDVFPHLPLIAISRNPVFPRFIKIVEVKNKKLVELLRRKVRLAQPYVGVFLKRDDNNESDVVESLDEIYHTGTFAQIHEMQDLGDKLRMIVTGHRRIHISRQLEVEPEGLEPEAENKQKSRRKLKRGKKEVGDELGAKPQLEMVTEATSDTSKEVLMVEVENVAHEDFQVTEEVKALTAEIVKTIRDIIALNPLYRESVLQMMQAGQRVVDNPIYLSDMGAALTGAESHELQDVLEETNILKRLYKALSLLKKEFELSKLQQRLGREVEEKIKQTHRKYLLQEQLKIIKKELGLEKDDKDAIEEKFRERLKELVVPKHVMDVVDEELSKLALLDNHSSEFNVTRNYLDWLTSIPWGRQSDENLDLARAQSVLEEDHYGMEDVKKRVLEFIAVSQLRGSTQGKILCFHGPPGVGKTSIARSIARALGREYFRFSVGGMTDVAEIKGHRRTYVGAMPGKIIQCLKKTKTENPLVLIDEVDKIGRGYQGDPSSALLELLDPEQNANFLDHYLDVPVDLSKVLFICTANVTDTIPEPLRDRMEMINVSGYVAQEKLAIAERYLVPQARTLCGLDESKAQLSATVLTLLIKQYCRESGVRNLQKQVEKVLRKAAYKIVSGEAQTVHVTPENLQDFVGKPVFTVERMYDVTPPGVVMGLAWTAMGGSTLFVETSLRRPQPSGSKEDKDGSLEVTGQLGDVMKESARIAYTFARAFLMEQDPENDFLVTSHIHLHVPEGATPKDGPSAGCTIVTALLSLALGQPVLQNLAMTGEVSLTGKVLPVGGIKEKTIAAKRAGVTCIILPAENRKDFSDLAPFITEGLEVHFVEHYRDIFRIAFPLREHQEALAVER

T2: recombinant GST-LONP1 (UniProt Q924S5)
T2 sequence: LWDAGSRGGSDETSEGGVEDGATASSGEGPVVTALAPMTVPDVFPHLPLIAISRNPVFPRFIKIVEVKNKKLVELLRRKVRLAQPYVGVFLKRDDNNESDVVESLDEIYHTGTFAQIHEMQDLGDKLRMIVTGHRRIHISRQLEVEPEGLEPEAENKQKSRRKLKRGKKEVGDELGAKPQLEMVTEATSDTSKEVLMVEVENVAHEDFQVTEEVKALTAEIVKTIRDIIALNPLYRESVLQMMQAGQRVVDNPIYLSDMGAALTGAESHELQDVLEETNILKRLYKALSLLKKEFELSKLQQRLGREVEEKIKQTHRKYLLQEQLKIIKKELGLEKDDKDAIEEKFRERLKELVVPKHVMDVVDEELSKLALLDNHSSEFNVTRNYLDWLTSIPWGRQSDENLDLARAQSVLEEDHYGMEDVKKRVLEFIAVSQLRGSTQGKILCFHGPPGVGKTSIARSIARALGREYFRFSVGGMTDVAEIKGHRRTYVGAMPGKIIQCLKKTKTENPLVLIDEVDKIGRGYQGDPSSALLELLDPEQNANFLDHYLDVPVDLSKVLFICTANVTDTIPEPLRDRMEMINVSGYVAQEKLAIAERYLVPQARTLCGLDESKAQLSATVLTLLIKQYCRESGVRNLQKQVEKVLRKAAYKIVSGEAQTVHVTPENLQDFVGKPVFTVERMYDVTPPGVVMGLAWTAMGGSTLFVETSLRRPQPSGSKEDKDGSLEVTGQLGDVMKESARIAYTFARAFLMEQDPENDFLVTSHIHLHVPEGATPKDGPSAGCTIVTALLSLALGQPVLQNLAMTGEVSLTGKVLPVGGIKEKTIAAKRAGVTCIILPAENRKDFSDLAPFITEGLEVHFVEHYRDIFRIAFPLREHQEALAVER

T3: mitochondrial pyruvate carrier 1 (MPC1), endogenous in primary rat PASMCs (rat (endogenous in primary rat PASMCs)) (UniProt P63031)
T3 sequence: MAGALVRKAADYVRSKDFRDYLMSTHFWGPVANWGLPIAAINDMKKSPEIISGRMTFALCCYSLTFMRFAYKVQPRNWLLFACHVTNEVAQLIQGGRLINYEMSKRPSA


Columns and labels:
[1] = biological target: T1, Lon protease 1 (LONP1), endogenous in primary rat PASMCs (rat (endogenous in primary rat PASMCs)); assay: co-IP; primary PASMC lysate supernatants incubated overnight at 4°C with 2 μg of LONP1 or MPC1 antibody or control IgG, protein A/G beads 2 hours at room temperature, Western blot
recombinant GST-LONP1 = biological target: T2, recombinant GST-LONP1; assay: pull-down; 200 μg GST or GST-LONP1 on 30 μl glutathione magnetic beads (bait), PASMC lysate supernatant added overnight at 4°C (prey MPC1), eluted, Western blot; only the target purified
[2] = biological target: T3, mitochondrial pyruvate carrier 1 (MPC1), endogenous in primary rat PASMCs (rat (endogenous in primary rat PASMCs)); assay: co-IP; primary PASMC lysate supernatants incubated overnight at 4°C with 2 μg of LONP1 or MPC1 antibody or control IgG, protein A/G beads 2 hours at room temperature, Western blot

| Binder | binding [1] | binding (recombinant GST-LONP1) | binding [2] |
| --- | --- | --- | --- |
| mitochondrial pyruvate carrier 1 (MPC1), endogenous in primary rat PASMCs (protein, UniProt P63031 1-109) MAGALVRKAADYVRSKDFRDYLMSTHFWGPVANWGLPIAAINDMKKSPEIISGRMTFALCCYSLTFMRFAYKVQPRNWLLFACHVTNEVAQLIQGGRLINYEMSKRPSA | binds | binds |  |
| Lon protease 1 (LONP1), endogenous in primary rat PASMCs (enzyme, UniProt Q924S5 66-950) LWDAGSRGGSDETSEGGVEDGATASSGEGPVVTALAPMTVPDVFPHLPLIAISRNPVFPRFIKIVEVKNKKLVELLRRKVRLAQPYVGVFLKRDDNNESDVVESLDEIYHTGTFAQIHEMQDLGDKLRMIVTGHRRIHISRQLEVEPEGLEPEAENKQKSRRKLKRGKKEVGDELGAKPQLEMVTEATSDTSKEVLMVEVENVAHEDFQVTEEVKALTAEIVKTIRDIIALNPLYRESVLQMMQAGQRVVDNPIYLSDMGAALTGAESHELQDVLEETNILKRLYKALSLLKKEFELSKLQQRLGREVEEKIKQTHRKYLLQEQLKIIKKELGLEKDDKDAIEEKFRERLKELVVPKHVMDVVDEELSKLALLDNHSSEFNVTRNYLDWLTSIPWGRQSDENLDLARAQSVLEEDHYGMEDVKKRVLEFIAVSQLRGSTQGKILCFHGPPGVGKTSIARSIARALGREYFRFSVGGMTDVAEIKGHRRTYVGAMPGKIIQCLKKTKTENPLVLIDEVDKIGRGYQGDPSSALLELLDPEQNANFLDHYLDVPVDLSKVLFICTANVTDTIPEPLRDRMEMINVSGYVAQEKLAIAERYLVPQARTLCGLDESKAQLSATVLTLLIKQYCRESGVRNLQKQVEKVLRKAAYKIVSGEAQTVHVTPENLQDFVGKPVFTVERMYDVTPPGVVMGLAWTAMGGSTLFVETSLRRPQPSGSKEDKDGSLEVTGQLGDVMKESARIAYTFARAFLMEQDPENDFLVTSHIHLHVPEGATPKDGPSAGCTIVTALLSLALGQPVLQNLAMTGEVSLTGKVLPVGGIKEKTIAAKRAGVTCIILPAENRKDFSDLAPFITEGLEVHFVEHYRDIFRIAFPLREHQEALAVER |  |  | binds |
